Results are given in words; binding and its absence hold for the method and conditions named. In cells and extracts the contact can be indirect. Some binding calls cover weakened binding; strength is not graded here. Tags and fused reporters may be left off the sequences shown.
Experiments:
[1] = molecular target: T1, PXL1-flag (Arabidopsis thaliana) (UniProt Q9FRS6); test: co-IP; FLAG- and HA-tagged proteins cotransfected into Arabidopsis protoplasts from root cell suspension cultures; 10 µM MG132 for 6 h; lysis in 50 mM Tris-HCl pH 7.6, 150 mM NaCl, 1% NP-40, 0.1% SDS; anti-FLAG (anti-DYKDDDDK) or anti-HA magnetic beads, 4 °C; western blot
T1 sequence: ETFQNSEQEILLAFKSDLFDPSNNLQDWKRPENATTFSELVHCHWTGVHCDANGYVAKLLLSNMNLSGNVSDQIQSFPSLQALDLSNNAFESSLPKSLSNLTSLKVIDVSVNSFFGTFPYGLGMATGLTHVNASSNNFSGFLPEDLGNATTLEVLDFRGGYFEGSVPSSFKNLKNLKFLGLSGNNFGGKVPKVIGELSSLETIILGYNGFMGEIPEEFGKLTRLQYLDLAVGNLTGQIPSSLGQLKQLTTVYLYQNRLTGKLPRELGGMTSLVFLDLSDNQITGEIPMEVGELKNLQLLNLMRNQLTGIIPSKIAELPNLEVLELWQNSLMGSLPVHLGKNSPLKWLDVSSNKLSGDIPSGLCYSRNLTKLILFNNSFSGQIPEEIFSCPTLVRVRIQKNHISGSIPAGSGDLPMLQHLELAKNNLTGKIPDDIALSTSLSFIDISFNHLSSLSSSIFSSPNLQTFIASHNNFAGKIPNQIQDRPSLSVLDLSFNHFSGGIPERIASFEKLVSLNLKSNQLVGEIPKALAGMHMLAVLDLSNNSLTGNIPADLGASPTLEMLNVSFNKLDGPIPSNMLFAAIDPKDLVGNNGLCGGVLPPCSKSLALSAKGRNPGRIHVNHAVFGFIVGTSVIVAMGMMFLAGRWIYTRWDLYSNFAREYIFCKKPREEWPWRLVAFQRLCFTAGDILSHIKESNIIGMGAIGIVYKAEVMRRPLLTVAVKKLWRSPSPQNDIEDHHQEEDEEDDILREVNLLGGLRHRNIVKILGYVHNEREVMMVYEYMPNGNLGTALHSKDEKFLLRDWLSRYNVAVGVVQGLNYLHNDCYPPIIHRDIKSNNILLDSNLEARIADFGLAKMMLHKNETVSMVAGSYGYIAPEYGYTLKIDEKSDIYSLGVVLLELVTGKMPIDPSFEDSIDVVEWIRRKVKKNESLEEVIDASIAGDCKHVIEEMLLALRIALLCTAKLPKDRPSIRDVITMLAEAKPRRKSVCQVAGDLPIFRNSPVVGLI

[2] = molecular target: T2, PXL2-flag (Arabidopsis thaliana) (UniProt Q9M0G7); test: as above
T2 sequence: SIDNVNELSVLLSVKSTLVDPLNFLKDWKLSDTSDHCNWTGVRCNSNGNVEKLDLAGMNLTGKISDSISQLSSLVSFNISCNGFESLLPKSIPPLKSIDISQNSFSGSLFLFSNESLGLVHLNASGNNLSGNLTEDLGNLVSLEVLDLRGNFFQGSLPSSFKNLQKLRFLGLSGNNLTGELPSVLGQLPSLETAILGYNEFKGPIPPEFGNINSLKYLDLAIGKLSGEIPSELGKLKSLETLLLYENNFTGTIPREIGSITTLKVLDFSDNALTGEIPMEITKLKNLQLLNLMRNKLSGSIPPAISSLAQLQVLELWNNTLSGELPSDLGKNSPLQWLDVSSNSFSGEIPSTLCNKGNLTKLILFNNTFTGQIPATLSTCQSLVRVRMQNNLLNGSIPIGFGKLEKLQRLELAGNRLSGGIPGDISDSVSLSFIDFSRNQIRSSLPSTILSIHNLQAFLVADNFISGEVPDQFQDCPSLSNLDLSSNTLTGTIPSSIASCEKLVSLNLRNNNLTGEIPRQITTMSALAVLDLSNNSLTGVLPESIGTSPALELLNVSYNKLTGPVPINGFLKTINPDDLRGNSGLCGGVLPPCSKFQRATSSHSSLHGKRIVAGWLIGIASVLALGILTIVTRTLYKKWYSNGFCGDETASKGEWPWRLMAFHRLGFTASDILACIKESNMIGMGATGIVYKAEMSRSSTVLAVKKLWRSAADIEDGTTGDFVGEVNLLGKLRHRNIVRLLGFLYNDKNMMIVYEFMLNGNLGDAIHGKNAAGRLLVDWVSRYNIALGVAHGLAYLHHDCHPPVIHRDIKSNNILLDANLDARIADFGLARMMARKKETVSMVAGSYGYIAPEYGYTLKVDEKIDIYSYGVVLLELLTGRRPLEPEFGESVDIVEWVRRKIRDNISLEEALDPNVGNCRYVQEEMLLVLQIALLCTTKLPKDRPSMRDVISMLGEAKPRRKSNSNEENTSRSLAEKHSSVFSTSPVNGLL

[3] = molecular target: T3, PXY-FLAG (plant construct) (Arabidopsis thaliana) (UniProt Q9FII5); test: as above
T3 sequence: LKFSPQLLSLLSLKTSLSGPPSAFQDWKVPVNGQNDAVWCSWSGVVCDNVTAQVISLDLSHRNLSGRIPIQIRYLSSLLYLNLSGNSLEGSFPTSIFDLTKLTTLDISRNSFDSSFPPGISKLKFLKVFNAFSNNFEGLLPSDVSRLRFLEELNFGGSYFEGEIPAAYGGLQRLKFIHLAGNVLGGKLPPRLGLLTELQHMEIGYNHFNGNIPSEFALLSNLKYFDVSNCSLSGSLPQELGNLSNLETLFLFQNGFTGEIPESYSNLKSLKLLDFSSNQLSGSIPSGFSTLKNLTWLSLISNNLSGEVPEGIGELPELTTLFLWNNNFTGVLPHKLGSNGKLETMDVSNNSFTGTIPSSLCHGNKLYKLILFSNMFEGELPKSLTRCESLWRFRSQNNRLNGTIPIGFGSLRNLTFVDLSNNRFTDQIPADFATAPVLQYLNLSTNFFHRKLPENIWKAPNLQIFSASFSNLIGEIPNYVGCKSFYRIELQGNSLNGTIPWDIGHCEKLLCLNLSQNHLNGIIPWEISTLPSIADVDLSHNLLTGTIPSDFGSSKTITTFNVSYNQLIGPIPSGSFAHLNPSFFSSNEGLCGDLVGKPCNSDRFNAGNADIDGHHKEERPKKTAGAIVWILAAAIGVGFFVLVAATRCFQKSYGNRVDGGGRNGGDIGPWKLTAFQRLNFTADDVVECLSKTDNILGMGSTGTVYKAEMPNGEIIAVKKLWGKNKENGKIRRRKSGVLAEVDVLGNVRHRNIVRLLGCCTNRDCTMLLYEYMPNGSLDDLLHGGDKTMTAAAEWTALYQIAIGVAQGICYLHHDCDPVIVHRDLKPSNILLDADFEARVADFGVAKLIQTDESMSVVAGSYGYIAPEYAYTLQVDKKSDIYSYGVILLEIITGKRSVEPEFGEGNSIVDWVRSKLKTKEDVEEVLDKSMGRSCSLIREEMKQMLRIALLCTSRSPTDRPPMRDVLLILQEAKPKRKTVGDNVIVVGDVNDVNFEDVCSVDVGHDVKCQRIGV

[4] = molecular target: T3, PXY-FLAG (plant construct) (Arabidopsis thaliana); test: co-IP; FLAG- and HA-tagged proteins coinfiltrated into Nicotiana leaves; 10 µM MG132 for 6 h; lysis in 50 mM Tris-HCl pH 7.6, 150 mM NaCl, 1% NP-40, 0.1% SDS; anti-HA or anti-FLAG (anti-DYKDDDDK) magnetic beads, 4 °C; western blot

Measured: binding

B1: ER-HA (receptor, UniProt Q42371 25-976)
chain: EEGATLLEIKKSFKDVNNVLYDWTTSPSSDYCVWRGVSCENVTFNVVALNLSDLNLDGEISPAIGDLKSLLSIDLRGNRLSGQIPDEIGDCSSLQNLDLSFNELSGDIPFSISKLKQLEQLILKNNQLIGPIPSTLSQIPNLKILDLAQNKLSGEIPRLIYWNEVLQYLGLRGNNLVGNISPDLCQLTGLWYFDVRNNSLTGSIPETIGNCTAFQVLDLSYNQLTGEIPFDIGFLQVATLSLQGNQLSGKIPSVIGLMQALAVLDLSGNLLSGSIPPILGNLTFTEKLYLHSNKLTGSIPPELGNMSKLHYLELNDNHLTGHIPPELGKLTDLFDLNVANNDLEGPIPDHLSSCTNLNSLNVHGNKFSGTIPRAFQKLESMTYLNLSSNNIKGPIPVELSRIGNLDTLDLSNNKINGIIPSSLGDLEHLLKMNLSRNHITGVVPGDFGNLRSIMEIDLSNNDISGPIPEELNQLQNIILLRLENNNLTGNVGSLANCLSLTVLNVSHNNLVGDIPKNNNFSRFSPDSFIGNPGLCGSWLNSPCHDSRRTVRVSISRAAILGIAIGGLVILLMVLIAACRPHNPPPFLDGSLDKPVTYSTPKLVILHMNMALHVYEDIMRMTENLSEKYIIGHGASSTVYKCVLKNCKPVAIKRLYSHNPQSMKQFETELEMLSSIKHRNLVSLQAYSLSHLGSLLFYDYLENGSLWDLLHGPTKKKTLDWDTRLKIAYGAAQGLAYLHHDCSPRIIHRDVKSSNILLDKDLEARLTDFGIAKSLCVSKSHTSTYVMGTIGYIDPEYARTSRLTEKSDVYSYGIVLLELLTRRKAVDDESNLHHLIMSKTGNNEVMEMADPDITSTCKDLGVVKKVFQLALLCTKRQPNDRPTMHQVTRVLGSFMLSEQPPAATDTSATLAGSCYVDEYANLKTPHSVNCSSMSASDAQLFLRFGQVISQNSE
binds: all assays above

B2: ERL2-HA (receptor, UniProt Q6XAT2 28-967)
chain: MNNEGKALMAIKASFSNVANMLLDWDDVHNHDFCSWRGVFCDNVSLNVVSLNLSNLNLGGEISSALGDLMNLQSIDLQGNKLGGQIPDEIGNCVSLAYVDFSTNLLFGDIPFSISKLKQLEFLNLKNNQLTGPIPATLTQIPNLKTLDLARNQLTGEIPRLLYWNEVLQYLGLRGNMLTGTLSPDMCQLTGLWYFDVRGNNLTGTIPESIGNCTSFEILDVSYNQITGVIPYNIGFLQVATLSLQGNKLTGRIPEVIGLMQALAVLDLSDNELTGPIPPILGNLSFTGKLYLHGNKLTGQIPPELGNMSRLSYLQLNDNELVGKIPPELGKLEQLFELNLANNNLVGLIPSNISSCAALNQFNVHGNFLSGAVPLEFRNLGSLTYLNLSSNSFKGKIPAELGHIINLDTLDLSGNNFSGSIPLTLGDLEHLLILNLSRNHLNGTLPAEFGNLRSIQIIDVSFNFLAGVIPTELGQLQNINSLILNNNKIHGKIPDQLTNCFSLANLNISFNNLSGIIPPMKNFTRFSPASFFGNPFLCGNWVGSICGPSLPKSQVFTRVAVICMVLGFITLICMIFIAVYKSKQQKPVLKGSSKQPEGSTKLVILHMDMAIHTFDDIMRVTENLDEKYIIGYGASSTVYKCTSKTSRPIAIKRIYNQYPSNFREFETELETIGSIRHRNIVSLHGYALSPFGNLLFYDYMENGSLWDLLHGPGKKVKLDWETRLKIAVGAAQGLAYLHHDCTPRIIHRDIKSSNILLDGNFEARLSDFGIAKSIPATKTYASTYVLGTIGYIDPEYARTSRLNEKSDIYSFGIVLLELLTGKKAVDNEANLHQMILSKADDNTVMEAVDAEVSVTCMDSGHIKKTFQLALLCTKRNPLERPTMQEVSRVLLSLVPSPPPKKLPSPAKVQEGEERRESHSSDTTTPQWFVQFREDISKSSL
binds: all assays above
